This is an account of results in article PMC7408725.

These are yes or no findings as the source states them, for the method shown. Binding seen in cells or lysates may run through a third protein. Some entries that bind do so weakly or less than the wild type.

For this experiment, the target named is Smad3 (human (endogenous in HPL1A)), P84022. The experiment is described as follows: co-IP; lysate (1 mg protein) of cells transfected with miR-216b mimic or control miRNA mimic and treated with 5 ng/mL TGF-β1 for 1 h; anti-Smad3 antibody or rabbit IgG with protein A agarose beads, 4 °C overnight; Western blot with anti-Smad4 and anti-Smad3. The conditions noted are these: remark: other sources report otherwise.

B1: Smad4, Q13485 1-552 (protein)
chain: MDNMSITNTPTSNDACLSIVHSLMCHRQGGESETFAKRAIESLVKKLKEKKDELDSLITAITTNGAHPSKCVTIQRTLDGRLQVAGRKGFPHVIYARLWRWPDLHKNELKHVKYCQYAFDLKCDSVCVNPYHYERVVSPGIDLSGLTLQSNAPSSMMVKDEYVHDFEGQPSLSTEGHSIQTIQHPPSNRASTETYSTPALLAPSESNATSTANFPNIPVASTSQPASILGGSHSEGLLQIASGPQPGQQQNGFTGQPATYHHNSTTTWTGSRTAPYTPNLPHHQNGHLQHHPPMPPHPGHYWPVHNELAFQPPISNHPAPEYWCSIAYFEMDVQVGETFKVPSSCPIVTVDGYVDPSGGDRFCLGQLSNVHRTEAIERARLHIGKGVQLECKGEGDVWVRCLSDHAVFVQSYYLDREAGRAPGDAVHKIYPSAYIKVFDLRQCHRQMQQQAATAQAAAAAQAAAVAGNIPGPGSVGGIAPAISLSAAAGIGVDDLRRLCILRMSFVKGWGPDYPRQSIKETPCWIEIHLHRALQLLDEVLHTMPIADPQPLD
For the molecule B1, the binding entry was “binds”.
